For five molecules, binding results are on record in publication PMC7922534, “Searching for Peptide Inhibitors of T Regulatory Cell Activity by Targeting Specific Domains of FOXP3 Transcription Factor” (Biomedicines, 2021).

Sequences of proteins named here, by UniProt entry; tags and fusion partners are left off.
UniProt Q01196: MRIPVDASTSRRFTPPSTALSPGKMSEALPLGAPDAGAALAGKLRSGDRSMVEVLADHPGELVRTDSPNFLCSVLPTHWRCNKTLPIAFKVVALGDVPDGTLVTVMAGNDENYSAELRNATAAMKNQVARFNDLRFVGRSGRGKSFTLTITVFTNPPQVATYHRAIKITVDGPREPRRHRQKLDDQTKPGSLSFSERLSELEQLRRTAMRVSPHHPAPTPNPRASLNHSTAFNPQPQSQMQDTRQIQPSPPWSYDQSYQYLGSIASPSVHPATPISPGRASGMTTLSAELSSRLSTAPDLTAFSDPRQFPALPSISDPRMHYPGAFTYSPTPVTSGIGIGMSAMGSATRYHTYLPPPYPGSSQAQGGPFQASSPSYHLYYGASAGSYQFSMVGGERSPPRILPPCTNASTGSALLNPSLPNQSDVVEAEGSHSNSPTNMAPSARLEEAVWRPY

The target of one assay is FOXP3-GST fusion protein (UniProt Q9BZS1). Put plainly: AlphaScreen or HTRF; FOXP3-GST and AML1-His, similar protocol as for FOXP3/NFAT1; with or without peptide; both purified.
In the next assay the target is T1, FOXP3-6His (UniProt Q9BZS1-1 1-417).
T1 construct: FOXP3 (Forkhead box protein 3) transcription factor; also called His-tagged FOXP3
T1 sequence (looked up): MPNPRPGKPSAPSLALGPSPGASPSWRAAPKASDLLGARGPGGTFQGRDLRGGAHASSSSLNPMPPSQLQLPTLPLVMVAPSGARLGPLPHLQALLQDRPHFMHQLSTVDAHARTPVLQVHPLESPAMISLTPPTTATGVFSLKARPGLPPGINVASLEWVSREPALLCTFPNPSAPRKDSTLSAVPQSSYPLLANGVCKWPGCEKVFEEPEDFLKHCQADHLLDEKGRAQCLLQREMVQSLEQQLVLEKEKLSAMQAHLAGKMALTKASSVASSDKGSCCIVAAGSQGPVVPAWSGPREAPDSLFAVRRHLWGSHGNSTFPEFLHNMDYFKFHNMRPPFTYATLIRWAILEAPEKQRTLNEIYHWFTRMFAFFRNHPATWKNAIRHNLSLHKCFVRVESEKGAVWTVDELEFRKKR
Put plainly: SPR; FOXP3-6His immobilised covalently on a GLC sensor chip (ProteOn XPR36); peptides 10 uM injected in triplicate; PBS, 0.005% Tween 20, pH 7.4; 30 uL/min; interspot signal as reference; both purified.

Results are given in words; binding and its absence hold for the method and conditions named. Some results given as binding are weak or reduced against the parent protein; the word gives no strength.

As to AML1-His (from UniProt Q01196 1-453), the binding entry with FOXP3-GST fusion protein is on record as “binds”.

For the molecule NAIRHNLSLHKCFVR [F383–397], the binding result in the assay with FOXP3-6His is listed as “binds”.

PATWKNAIRHNLSLH [F378–392]: the binding result with FOXP3-6His is listed as “binds”.

On to TRMFAFFRNHPATWK [F368–382], for which the binding result with FOXP3-6His was “binds”.

Take IYHWFTRMFAFFRNH [F363–377]: in the assay with FOXP3-6His, the binding entry is on record as “binds”.
